Reference: US5422351A, “Bis-benzo or benzopyrido cyclohepta piperidene, piperidylidene and piperazine compounds, compositions and methods of use” (Schering Corporation, priority 1992, dated 1995)

Test system: PAF-induced platelet aggregation (human platelet-rich plasma)
Assay: PAF-induced platelet aggregation (in vitro)
Assay type: cell-based
Details: PAF 1-5×10^-8 M, read-out: PAF Antagonism (in vitro) IC50
Method: Platelet-activating factor (PAF) causes aggregation of platelets by a receptor-mediated mechanism. Therefore, PAF-induced platelet aggregation provides a simple and convenient assay to screen compounds for PAF antagonism.
Blood was centrifuged at 110× g for 15 min. and the supernatant platelet-rich plasma (PRP) carefully transferred into a polypropylene tube. Platelet-poor-plasma (PPP) was prepared by centrifuging PRP at 12,000× g for 2 min. (Beckman Microfuge B). PRP was used within 3 hr. of drawing the blood.
PAF was dissolved in chloroform:methanol (1:1, v/v) at a concentration of 2 mg/ml and stored at -70° C. An aliquot of this solution was transferred to a polypropylene tube and dried under a flow of nitrogen gas. […] This stock solution was further diluted to appropriate concentrations in Hepes-saline-BSA buffer. Collagen (Sigma) and adenosine diphosphate (ADP) (Sigma) were purchased as solutions. […]
When an aggregating agent such as PAF is added to PRP, platelets aggregate. An aggregometer quantifies this aggregation by measuring and comparing light (infra-red) transmission through PPP and PRP. […] Values for inhibition were calculated by comparing rates of aggregation obtained in the absence and the presence of the compound. […]

In the case of `CCOC(=O)N1CCC(=C2c3ccc(Cl)cc3CCc3cccnc32)CC1` [Compound 1, reference compound], the IC50 is reported as 175 µM.
